This is an account of results in article PMC9104804, “Fine-Tuning Modulation of Oxidation-Mediated Posttranslational Control of Bradyrhizobium diazoefficiens FixK2 Transcription Factor”.

For at least one entry, the source does not settle the construct or the ends of the probe. A weaker result is weaker than the reference pair of the same experiment. Protein sequences can lack the tags named with them.

The target of the data set is T1, C183D FixK2 (Bradyrhizobium diazoefficiens 110spc4) (UniProt O69245).
T1 sequence (looked up, limits assumed): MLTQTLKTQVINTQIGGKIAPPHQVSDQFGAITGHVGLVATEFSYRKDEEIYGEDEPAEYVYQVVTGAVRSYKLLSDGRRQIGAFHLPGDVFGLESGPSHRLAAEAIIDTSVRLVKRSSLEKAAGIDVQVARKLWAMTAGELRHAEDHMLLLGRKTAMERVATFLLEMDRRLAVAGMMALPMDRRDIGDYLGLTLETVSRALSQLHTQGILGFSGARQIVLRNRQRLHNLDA
Kind of data set: SPR. Particulars: interacted poorly, no Kd or kinetics calculable, non-specific at high concentrations (up to 3 uM); 5'-biotin on reverse strand (S47); SPR: 40 mM Tris-HCl pH 7.0, 150 mM KCl, 0.1 mM EDTA, 0.005% Tween 20, 25 °C; recombinant protein; label: biotin.

On to “CCACCTATCTTGATTTCAATCAATTCCCCG (double strand) [fixN_3 FixK2 box duplex (SPR)]”, for which the binding result is given as “binds more weakly”.
